# Percent effect of library compounds

Mtb glucose medium: 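Phenotypic screen: M. tuberculosis growth, glucose 7H9 medium, 3 days; the read-out is not stated. Compounds at 500 µM. Higher reads as more growth inhibition (inferred: compounds with an IC50 in retests scored well above the rest). About 18,000 compounds were tested under these conditions; 7.9% (about 1,400) showed 50% or more at least once.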
Mtb cholesterol medium: 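Phenotypic screen: M. tuberculosis growth, cholesterol and DPPC medium, 4 days; the read-out is not stated. Tested at 500 µM. Direction is inferred from retests: higher values go with more growth inhibition. Size under these conditions: about 18,000 compounds, about 900 of them at 50% or above in at least one test.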

Values are the deposited “Percent Effect”, in %. The record does not define 0% and 100%; most values in the screen are far below 50% and negative numbers occur (in some assays of this library far below -100). Compounds were drawn at random from those tested, without regard to their results.

Result for CCc1c(C)nc(N)nc1NCc1noc(COC)n1 was Mtb glucose medium: -8.637%; Mtb cholesterol medium: -26.28%.
Result for CCn1c(C)nnc1Cn1cc(Br)cc(C)c1=O was Mtb glucose medium: 4.694%; Mtb cholesterol medium: 1.998%.
Result for COc1ccc(C(O)CNc2ccccn2)cc1OC (stereo not shown) was Mtb glucose medium: 22.27%; Mtb cholesterol medium: 12.57%.
Result for CCNC(=O)CNc1ccc(Br)cc1 was Mtb glucose medium: 74.37%; Mtb cholesterol medium: 73.91%.
Result for Cc1nc(CN(C)CC2CCN(CC(C)O)CC2)no1 (stereo not shown) was Mtb glucose medium: -1.691%; Mtb cholesterol medium: -16.56%.
Result for O=c1oc(-c2ccccc2)nn1CN1CCOCC1 was Mtb glucose medium: -0.04256%; Mtb cholesterol medium: -10.98%.
Result for CC(=O)c1ccc(N)nc1 was Mtb glucose medium: -0.162%; Mtb cholesterol medium: 5.035%.
Result for O=C(C1CC1)N1CCCCCC1CN1CCOCC1 (stereo not shown) was Mtb glucose medium: 3.033%; Mtb cholesterol medium: -2.53%.
Result for O=C1CCNc2ncccc2N1 was Mtb glucose medium: 2.081%; Mtb cholesterol medium: 4.469%.
Result for Cc1ccccc1CC(=O)NCC(F)(F)F was Mtb glucose medium: -5.038%; Mtb cholesterol medium: -24.8%.
Result for Cc1cc(CO)c(C)o1 was Mtb glucose medium: -4.379%; Mtb cholesterol medium: -8.182%.
Result for O=S(=O)(NCC1(NS(=O)(=O)C2CC2)CCC1)C1CC1 was Mtb glucose medium: 7.407%; Mtb cholesterol medium: 10.42%.
Result for CN(C)c1ccc(CN)cc1F was Mtb glucose medium: 18.48%; Mtb cholesterol medium: 13.9%.
Result for O=C(CNc1cncc(Br)c1)N1CCCCC1 was Mtb glucose medium: -11.14%; Mtb cholesterol medium: -9.513%.
Result for CCc1ccccc1NC(=O)CS(=O)(=O)CC was Mtb glucose medium: 8.826%; Mtb cholesterol medium: -11.31%.
Result for NS(=O)(=O)c1cccc(NC(=O)C23CCC(CC2)C3)c1 was Mtb glucose medium: 12.18%; Mtb cholesterol medium: 4.682%.
Result for CC(C(=O)Nc1nc2c(s1)CCCC2)n1cncn1 (stereo not shown) was Mtb glucose medium: 5.101%; Mtb cholesterol medium: -9.768%.
Result for NC1CCC(Oc2cnccn2)CC1 (stereo not shown) was Mtb glucose medium: 17.34%; Mtb cholesterol medium: 6.256%.
Result for Cc1cccc(NC(=O)C2CCN(CCCO)CC2)n1 was Mtb glucose medium: 9.118%; Mtb cholesterol medium: 2.391%.
Result for N#Cc1ccc(CN)cc1Cl was Mtb glucose medium: 19.79%; Mtb cholesterol medium: 21.69%.
Result for CNC(=O)CC(C)N(C)Cc1nc(CSC)no1 (stereo not shown) was Mtb glucose medium: 11.36%; Mtb cholesterol medium: 27.06%.
Result for CN(CC(N)=O)S(=O)(=O)c1ccc2c(c1)OCCO2 was Mtb glucose medium: 3.874%; Mtb cholesterol medium: 14.42%.
Result for CN(C)S(=O)(=O)CCCN1CCCC(CO)C1 (stereo not shown) was Mtb glucose medium: 1.282%; Mtb cholesterol medium: -1.003%.
Result for CCOc1ccc(CNC(=O)CCn2cccn2)cc1 was Mtb glucose medium: 57.28%; Mtb cholesterol medium: 43.78%.
Result for CN(C)C(=O)N1CCN(c2cccc(F)c2C#N)CC1 was Mtb glucose medium: 0.8101%; Mtb cholesterol medium: 2.19%.
Result for OCc1cnc(-c2ccco2)o1 was Mtb glucose medium: -5.097%; Mtb cholesterol medium: -19.88%.
Result for COC(=O)c1ccc(Cl)cc1OCc1ncnn1C was Mtb glucose medium: 15.23%; Mtb cholesterol medium: 4.458%.
Result for Cc1ccc(C(C)NC(=O)CSc2cnn[nH]2)cc1C (stereo not shown) was Mtb glucose medium: 46.94%; Mtb cholesterol medium: 43.73%.
Result for Cc1nccn1CCN(C)C(=O)COCC1CCCO1 (stereo not shown) was Mtb glucose medium: -4.634%; Mtb cholesterol medium: -5.255%.
Result for COC1CCN(C(=O)CCc2ccc(F)cc2F)C1 (stereo not shown) was Mtb glucose medium: 74.93%; Mtb cholesterol medium: 63.68%.
Result for Cn1cncc1CCNC(=O)CCc1ccsc1 was Mtb glucose medium: -0.2884%; Mtb cholesterol medium: -8.988%.

The last 2 entries again:

COC1CCN(C(=O)CCc2ccc(F)cc2F)C1 (stereo not shown) read Mtb glucose medium: 74.93%; Mtb cholesterol medium: 63.68%.
Cn1cncc1CCNC(=O)CCc1ccsc1 read Mtb glucose medium: -0.2884%; Mtb cholesterol medium: -8.988%.

From ChEMBL document CHEMBL3988442, “University of Dundee, Small-Polar-MMV Screening Library” (2021).